Amino acid sequences for entries named in this document (tags omitted). A change or cut given only in a name is not applied to a line headed by its entry.
UniProt Q8TCD1: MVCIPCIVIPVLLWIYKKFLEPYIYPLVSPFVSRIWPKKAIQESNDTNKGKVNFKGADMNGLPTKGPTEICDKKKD
UniProt Q8WU76: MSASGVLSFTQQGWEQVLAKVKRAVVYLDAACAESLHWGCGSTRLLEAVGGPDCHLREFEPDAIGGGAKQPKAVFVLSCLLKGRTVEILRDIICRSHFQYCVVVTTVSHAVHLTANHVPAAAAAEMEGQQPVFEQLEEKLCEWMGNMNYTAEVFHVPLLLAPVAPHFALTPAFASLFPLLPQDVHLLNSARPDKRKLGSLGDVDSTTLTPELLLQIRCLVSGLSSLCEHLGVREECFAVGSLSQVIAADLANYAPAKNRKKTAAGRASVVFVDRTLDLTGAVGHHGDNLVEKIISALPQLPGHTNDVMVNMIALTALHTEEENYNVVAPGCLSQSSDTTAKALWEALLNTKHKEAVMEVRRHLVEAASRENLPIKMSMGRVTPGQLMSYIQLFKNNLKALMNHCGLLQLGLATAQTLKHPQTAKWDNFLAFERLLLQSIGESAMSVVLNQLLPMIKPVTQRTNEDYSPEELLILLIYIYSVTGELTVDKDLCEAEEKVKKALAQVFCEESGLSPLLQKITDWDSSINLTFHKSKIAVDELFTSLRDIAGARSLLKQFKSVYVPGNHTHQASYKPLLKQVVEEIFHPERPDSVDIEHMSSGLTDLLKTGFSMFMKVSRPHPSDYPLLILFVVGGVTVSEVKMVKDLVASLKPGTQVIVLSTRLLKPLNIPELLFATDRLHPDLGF
UniProt Q8TDY4: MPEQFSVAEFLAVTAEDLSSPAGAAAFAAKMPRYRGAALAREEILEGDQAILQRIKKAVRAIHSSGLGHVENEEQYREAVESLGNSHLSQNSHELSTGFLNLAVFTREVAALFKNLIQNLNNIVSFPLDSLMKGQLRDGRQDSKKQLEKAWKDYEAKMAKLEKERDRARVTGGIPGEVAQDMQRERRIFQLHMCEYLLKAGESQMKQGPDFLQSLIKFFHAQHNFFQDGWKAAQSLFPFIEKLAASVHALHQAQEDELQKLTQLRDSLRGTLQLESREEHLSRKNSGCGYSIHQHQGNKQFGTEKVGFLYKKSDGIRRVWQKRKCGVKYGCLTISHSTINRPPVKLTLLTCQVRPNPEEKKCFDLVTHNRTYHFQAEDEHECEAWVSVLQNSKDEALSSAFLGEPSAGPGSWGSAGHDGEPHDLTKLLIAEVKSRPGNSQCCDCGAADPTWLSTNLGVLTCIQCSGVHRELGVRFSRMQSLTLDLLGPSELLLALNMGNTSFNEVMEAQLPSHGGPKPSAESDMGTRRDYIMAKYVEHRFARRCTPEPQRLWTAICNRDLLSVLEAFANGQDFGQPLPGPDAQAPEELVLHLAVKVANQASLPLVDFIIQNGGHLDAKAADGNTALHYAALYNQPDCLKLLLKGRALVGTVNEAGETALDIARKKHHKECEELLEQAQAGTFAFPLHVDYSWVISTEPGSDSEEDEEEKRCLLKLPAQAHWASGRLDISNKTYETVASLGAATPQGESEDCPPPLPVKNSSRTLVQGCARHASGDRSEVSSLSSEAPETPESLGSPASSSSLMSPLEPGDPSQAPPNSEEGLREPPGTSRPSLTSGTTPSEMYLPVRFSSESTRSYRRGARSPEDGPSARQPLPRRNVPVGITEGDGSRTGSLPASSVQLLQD
UniProt Q8TED0: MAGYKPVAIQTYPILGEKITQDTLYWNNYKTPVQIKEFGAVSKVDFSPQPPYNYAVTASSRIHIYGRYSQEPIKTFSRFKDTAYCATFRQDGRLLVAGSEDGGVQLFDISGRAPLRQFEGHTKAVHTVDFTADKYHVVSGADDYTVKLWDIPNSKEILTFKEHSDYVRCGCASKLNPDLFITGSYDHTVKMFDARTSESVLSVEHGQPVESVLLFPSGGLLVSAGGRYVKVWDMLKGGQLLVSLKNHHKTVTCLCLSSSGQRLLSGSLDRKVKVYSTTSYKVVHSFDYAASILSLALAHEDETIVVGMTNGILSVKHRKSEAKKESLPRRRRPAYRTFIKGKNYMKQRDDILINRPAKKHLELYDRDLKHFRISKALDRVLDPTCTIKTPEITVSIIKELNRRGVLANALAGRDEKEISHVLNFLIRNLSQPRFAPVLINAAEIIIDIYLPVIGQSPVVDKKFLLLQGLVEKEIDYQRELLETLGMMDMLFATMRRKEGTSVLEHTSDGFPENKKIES
UniProt Q92618: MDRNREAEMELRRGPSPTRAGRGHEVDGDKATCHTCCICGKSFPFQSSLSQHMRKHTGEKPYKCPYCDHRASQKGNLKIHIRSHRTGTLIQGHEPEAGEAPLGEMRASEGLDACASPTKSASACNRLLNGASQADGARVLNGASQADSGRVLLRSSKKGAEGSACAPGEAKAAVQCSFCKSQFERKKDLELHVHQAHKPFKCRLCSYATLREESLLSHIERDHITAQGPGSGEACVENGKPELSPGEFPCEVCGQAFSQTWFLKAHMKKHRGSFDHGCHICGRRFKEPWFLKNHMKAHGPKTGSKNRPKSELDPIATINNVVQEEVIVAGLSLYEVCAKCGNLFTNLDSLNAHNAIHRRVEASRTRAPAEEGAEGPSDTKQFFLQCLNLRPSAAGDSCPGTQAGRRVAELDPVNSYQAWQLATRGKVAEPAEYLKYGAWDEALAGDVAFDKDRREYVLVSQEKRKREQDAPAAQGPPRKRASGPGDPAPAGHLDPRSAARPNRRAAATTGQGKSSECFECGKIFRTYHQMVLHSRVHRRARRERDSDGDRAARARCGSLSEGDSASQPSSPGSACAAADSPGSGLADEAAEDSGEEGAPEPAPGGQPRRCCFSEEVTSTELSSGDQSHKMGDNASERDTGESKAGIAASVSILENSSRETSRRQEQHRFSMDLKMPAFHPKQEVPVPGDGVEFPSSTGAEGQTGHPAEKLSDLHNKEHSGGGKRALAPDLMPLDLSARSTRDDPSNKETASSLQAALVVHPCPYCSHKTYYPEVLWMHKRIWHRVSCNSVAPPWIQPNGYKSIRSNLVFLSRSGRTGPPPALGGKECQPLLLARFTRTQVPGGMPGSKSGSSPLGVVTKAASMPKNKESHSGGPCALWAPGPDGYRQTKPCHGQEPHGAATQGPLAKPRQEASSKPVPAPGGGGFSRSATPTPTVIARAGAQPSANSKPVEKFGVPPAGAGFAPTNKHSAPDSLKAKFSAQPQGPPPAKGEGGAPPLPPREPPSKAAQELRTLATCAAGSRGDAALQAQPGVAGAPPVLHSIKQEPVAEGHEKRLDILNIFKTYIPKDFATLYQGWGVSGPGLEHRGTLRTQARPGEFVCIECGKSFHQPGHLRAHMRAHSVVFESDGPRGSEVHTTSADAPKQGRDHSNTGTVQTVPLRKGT
UniProt Q92530: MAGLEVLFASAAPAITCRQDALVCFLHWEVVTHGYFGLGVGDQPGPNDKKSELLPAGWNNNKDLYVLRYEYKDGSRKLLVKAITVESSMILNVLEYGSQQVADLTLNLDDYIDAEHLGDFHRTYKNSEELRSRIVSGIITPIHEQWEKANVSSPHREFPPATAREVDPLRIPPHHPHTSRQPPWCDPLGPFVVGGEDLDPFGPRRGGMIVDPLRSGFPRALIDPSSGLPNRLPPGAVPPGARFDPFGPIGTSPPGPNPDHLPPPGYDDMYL
UniProt Q8WV92, whole entry: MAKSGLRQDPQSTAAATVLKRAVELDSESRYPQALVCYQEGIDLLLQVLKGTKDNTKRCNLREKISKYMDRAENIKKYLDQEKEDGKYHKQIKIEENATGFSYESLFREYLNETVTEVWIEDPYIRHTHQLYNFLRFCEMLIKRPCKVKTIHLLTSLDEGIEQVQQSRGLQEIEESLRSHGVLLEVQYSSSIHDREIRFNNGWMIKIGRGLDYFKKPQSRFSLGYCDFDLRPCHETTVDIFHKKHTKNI
UniProt Q92614: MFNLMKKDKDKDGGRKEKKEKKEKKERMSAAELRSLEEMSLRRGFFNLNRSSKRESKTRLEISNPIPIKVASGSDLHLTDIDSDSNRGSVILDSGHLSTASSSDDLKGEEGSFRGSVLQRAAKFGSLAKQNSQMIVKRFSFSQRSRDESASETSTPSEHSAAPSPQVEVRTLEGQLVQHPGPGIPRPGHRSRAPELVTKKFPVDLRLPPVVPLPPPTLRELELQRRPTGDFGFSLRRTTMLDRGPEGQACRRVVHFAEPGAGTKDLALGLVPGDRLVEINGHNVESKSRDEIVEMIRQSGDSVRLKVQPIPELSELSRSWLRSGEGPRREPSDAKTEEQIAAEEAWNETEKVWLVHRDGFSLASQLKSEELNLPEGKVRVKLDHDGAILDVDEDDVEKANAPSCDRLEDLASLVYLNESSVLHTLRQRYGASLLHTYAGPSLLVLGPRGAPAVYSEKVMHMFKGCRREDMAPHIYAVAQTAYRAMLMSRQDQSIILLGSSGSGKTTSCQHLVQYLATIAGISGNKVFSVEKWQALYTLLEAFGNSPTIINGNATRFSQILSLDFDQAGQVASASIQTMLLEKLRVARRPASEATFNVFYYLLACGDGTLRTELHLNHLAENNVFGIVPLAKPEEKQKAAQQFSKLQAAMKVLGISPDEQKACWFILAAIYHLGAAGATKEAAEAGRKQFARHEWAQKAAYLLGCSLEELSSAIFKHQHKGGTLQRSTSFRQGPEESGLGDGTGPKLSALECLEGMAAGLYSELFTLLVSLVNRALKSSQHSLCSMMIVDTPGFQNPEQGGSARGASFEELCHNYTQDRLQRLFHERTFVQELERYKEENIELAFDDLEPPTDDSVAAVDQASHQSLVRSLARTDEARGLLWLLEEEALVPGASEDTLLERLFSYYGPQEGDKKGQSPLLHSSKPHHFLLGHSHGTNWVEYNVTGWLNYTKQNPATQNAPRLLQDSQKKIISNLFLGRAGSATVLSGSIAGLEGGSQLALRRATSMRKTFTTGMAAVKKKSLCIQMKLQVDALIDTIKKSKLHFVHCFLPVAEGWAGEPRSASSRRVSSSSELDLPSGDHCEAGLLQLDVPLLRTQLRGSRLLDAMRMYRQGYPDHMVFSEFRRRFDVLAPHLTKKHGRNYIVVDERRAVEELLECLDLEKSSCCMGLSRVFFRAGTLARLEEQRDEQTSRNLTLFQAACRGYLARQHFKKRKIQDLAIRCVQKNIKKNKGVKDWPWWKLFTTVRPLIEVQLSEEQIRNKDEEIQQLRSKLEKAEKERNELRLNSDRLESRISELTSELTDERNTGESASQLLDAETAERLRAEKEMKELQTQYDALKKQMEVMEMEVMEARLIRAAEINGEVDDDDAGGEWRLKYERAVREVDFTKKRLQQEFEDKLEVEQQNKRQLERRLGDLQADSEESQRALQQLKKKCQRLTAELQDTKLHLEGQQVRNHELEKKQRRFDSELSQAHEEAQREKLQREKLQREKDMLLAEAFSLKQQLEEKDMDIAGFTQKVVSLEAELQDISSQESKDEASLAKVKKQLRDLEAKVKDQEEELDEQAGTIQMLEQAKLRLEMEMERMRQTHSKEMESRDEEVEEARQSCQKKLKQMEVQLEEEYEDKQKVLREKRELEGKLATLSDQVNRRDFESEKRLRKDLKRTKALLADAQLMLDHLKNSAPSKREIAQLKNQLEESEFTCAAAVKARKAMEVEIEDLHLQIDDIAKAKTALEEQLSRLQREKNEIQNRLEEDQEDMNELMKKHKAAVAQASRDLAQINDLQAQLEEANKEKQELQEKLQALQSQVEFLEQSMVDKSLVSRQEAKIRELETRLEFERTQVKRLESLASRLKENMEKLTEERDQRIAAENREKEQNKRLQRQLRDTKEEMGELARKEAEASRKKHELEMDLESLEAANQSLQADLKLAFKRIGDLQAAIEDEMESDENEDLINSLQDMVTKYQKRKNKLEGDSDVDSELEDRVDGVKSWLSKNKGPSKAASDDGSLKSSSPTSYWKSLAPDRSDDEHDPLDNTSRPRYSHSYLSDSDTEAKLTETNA
UniProt Q92785, whole entry: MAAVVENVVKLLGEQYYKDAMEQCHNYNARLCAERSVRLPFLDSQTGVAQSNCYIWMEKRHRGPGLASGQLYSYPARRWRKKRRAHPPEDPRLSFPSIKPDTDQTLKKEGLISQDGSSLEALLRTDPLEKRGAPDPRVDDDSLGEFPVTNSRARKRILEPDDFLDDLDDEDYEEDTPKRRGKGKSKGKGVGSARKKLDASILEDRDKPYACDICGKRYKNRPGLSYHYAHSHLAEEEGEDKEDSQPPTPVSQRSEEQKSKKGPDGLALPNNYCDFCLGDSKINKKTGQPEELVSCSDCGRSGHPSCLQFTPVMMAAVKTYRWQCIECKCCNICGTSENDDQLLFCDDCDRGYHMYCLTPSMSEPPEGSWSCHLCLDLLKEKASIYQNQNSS
UniProt Q8WWZ3: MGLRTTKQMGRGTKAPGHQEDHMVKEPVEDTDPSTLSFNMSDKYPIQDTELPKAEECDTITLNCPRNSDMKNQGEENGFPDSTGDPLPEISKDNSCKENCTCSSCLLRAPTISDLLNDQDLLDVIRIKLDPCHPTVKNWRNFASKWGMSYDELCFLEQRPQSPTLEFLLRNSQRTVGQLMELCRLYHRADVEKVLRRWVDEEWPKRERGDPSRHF

This is one part of the list. Most values lie at the level of the controls, where differences are scatter.
Each target was assayed with CN[C@@H]1C[C@H]2O[C@@](C)([C@@H]1OC)n1c3ccccc3c3c4c(c5c6ccccc6n2c5c31)C(=O)NC4 [staurosporine] (assay: log2 fold change of tryptic peptide abundance, ligand vs vehicle (limited proteolysis) (log2 ratio); higher = more trypsin-susceptible (destabilized)). Conditions: ligand concentration: 20 uM; sample: K562 cleared lysate; digestion: 4 min, 22 C (HT-PELSA RT4min, Orbitrap Astral).
“C18orf32 (peptide sequence: GADMNGLPTKGPTEICDK, peptide start residue: 56) (UniProt Q8TCD1)” gave a log2 fold change of 0.24.
“TBC1D5 (peptide sequence: PVTYQFHPNLDYYK, peptide start residue: 420) (UniProt Q92609)” showed a log2 fold change of -0.233.
In the case of “SCFD2 (peptide sequence: TGFSMFMK, peptide start residue: 607) (UniProt Q8WU76)”, the log2 fold change is reported as -0.117.
“ATRIP (peptide sequence: VMEEEVLIK, peptide start residue: 130) (UniProt Q8WXE1)” showed a log2 fold change of 0.196.
With “ASAP3 (peptide sequence: YGCLTISHSTINRPPVK, peptide start residue: 329) (UniProt Q8TDY4)” the log2 fold change was -0.753.
“UniProt Q8TBZ0 (peptide sequence: DKERQPFLVK, peptide start residue: 394)” gave a log2 fold change of 0.0784.
“SPIRE2 (peptide sequence: AELDSLGHTDWAR, peptide start residue: 232) (UniProt Q8WWL2)” gave a log2 fold change of 0.658.
With “TGFBRAP1 (peptide sequence: LQGAGLPMESAILHGK, peptide start residue: 660) (UniProt Q8WUH2)” the log2 fold change was -0.384.
“UniProt Q92628 (peptide sequence: RSEYHLWEGQK, peptide start residue: 880)” showed a log2 fold change of -0.35.
With “UTP15 (peptide sequence: VLDPTCTIK, peptide start residue: 380) (UniProt Q8TED0)” the log2 fold change was 0.192.
Target “ZNF516 (peptide sequence: KKDLELHVHQAHK, peptide start residue: 186) (UniProt Q92618)” has a log2 fold change of -0.219.
“PSMF1 (peptide sequence: IVSGIITPIHEQWEK, peptide start residue: 134) (UniProt Q92530)” showed a log2 fold change of 0.201.
With “ZFPM2 (peptide sequence: LLDYHECTVCK, peptide start residue: 850) (UniProt Q8WW38)” the log2 fold change was -0.863.
Target “AKAP1 (peptide sequence: FIESAHTELAK, peptide start residue: 271) (UniProt Q92667)” has a log2 fold change of -0.782.
In the case of “FAR1 (peptide sequence: LIGDRPNTYIYTK, peptide start residue: 196) (UniProt Q8WVX9)”, the log2 fold change is reported as -0.179.
In the case of “IPO4 (peptide sequence: SVPLGHTHHLAK, peptide start residue: 446) (UniProt Q8TEX9)”, the log2 fold change is reported as 0.296.
“UniProt Q92600 (peptide sequence: QCLPDQLK, peptide start residue: 251)” gave a log2 fold change of 0.265.
“FAM222B (peptide sequence: TVNGLDTSAQR, peptide start residue: 77) (UniProt Q8WU58)” gave a log2 fold change of -0.206.
“MITD1 (peptide sequence: AVELDSESR, peptide start residue: 22) (UniProt Q8WV92)” showed a log2 fold change of -0.337.
For “UniProt Q92731 (peptide sequence: LANLLMLLSHVR, peptide start residue: 455)”, the log2 fold change was 0.331.
With “PPP4R1 (peptide sequence: DCIAVLER, peptide start residue: 83) (UniProt Q8TF05)” the log2 fold change was 0.28.
Target “MYO18A (peptide sequence: EKNEIQNR, peptide start residue: 1740) (UniProt Q92614)” has a log2 fold change of 0.706.
“RASSF5 (peptide sequence: LSIADRPLYLR, peptide start residue: 335) (UniProt Q8WWW0)” gave a log2 fold change of -0.517.
With “DPF2 (peptide sequence: DKPYACDICGK, peptide start residue: 206) (UniProt Q92785)” the log2 fold change was 0.414.
In the case of “NDRG1 (peptide sequence: EMQDVDLAEVKPLVEK, peptide start residue: 4) (UniProt Q92597)”, the log2 fold change is reported as -0.434.
For “KAT2A (peptide sequence: TLPENLTLEDAKR, peptide start residue: 435) (UniProt Q92830)”, the log2 fold change was 0.28.
“EDARADD (peptide sequence: TVGQLMELCR, peptide start residue: 175) (UniProt Q8WWZ3)” showed a log2 fold change of 0.185.
In the case of “UniProt Q8TD17 (peptide sequence: TVTELGNQLEGK, peptide start residue: 84)”, the log2 fold change is reported as 0.734.
